Results on twelve molecules are retold here after PubChem BioAssay AID328 (DTP/NCI, 2004).

The list does not hold the whole screen: it gathers tests that were run many times, whatever their T/C, doses with no T/C, and many T/C values between a quarter and a half above the control. Further doses and runs are listed elsewhere. T/C gives the treated animals as a percentage of the vehicle group. Some doses have a count of surviving animals in place of a T/C: the source holds a T/C of zero for them, seemingly a mark for toxic or unscored doses. Some survivor counts are full or nearly so, which does not show that the dose was tolerated: survival well below the control is almost never listed, so the zero probably covers shortened survival too. Counts of survivors are from the toxicity check (mostly the fifth day) where no day follows; animals may have died later. Schedules are NCI's codes, read here as Q, the interval in days (D) or hours (H), X, the number of doses. Where survival is the endpoint, this PubChem deposit counts one and a half times the control or more as active, and values a quarter to a half above the control carry no call in these data; other NCI protocols may use other cut-offs.

The subject of this experiment is BDF1 mice, P388 leukemia ip, median survival T/C. Put plainly: NCI In Vivo Anticancer Drug Screen. Data for tumor model P388 Leukemia (intraperitoneal) in B6D2F1 (BDF1) mice. The note with it: T/C endpoint: median survival time, higher T/C = longer survival. The essentials:
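Steps: implant the tumour, treat one group with compound and another with vehicle, record survival, then divide treated by control.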

[1] abbreviates: dose: 200.0 mg/kg/injection, schedule: Q01DX009 (ip), vehicle: saline with Tween-80.
The mark [2] stands for this setting: dose: 200.0 mg/kg/injection, schedule: Q04DX003 (ip), vehicle: saline with Tween-80.

For the molecule `CC(CCc1cccc2ccccc12)(C(=O)O)C(=O)O`, the survivor count (dose: 400.0 mg/kg/injection, schedule: Q04DX003 (ip), vehicle: saline sonified) is 4 of 6.
As to `[N-]=[N+]=[N-]`, the survivor count by setting is: (dose: 10.0 mg/kg/injection, schedule: Q01DX009 (ip), vehicle: saline) 4 of 6; (dose: 20.0 mg/kg/injection, schedule: Q04DX003 (ip), vehicle: saline) 6 of 6.
On to `CN(C)c1ccc2c(c1)Cc1cc(N=C3C=CC(=O)O3)ccc1-2`, for which the survivor count reads like this: (dose: 1.56 mg/kg/injection, schedule: Q01DX009 (ip), vehicle: alcohol) 6 of 6; (dose: 3.12 mg/kg/injection, schedule: Q01DX009 (ip), vehicle: alcohol) 6 of 6; (dose: 6.25 mg/kg/injection, schedule: Q01DX009 (ip), vehicle: alcohol) 6 of 6; (dose: 12.5 mg/kg/injection, schedule: Q01DX009 (ip), vehicle: saline) 6 of 6.
Take `CC(=O)/C=C/c1ccc2c(c1)OCO2`: the T/C (dose: 400.0 mg/kg/injection, schedule: Q04DX003 (ip), vehicle: saline) was 138 % of control.
With `c1ccc(NNc2c3ccccc3nc3ccccc23)cc1`, the survivor count under setting [1] is 3 of 6.
With `CCOc1ccccc1NC1=C(OC)C(=O)C(Nc2ccccc2OCC)=C(OC)C1=O`, the survivor count by setting is: (dose: 100.0 mg/kg/injection, schedule: Q04DX003 (ip), vehicle: Klucel (hydroxypropylcellulose) (HPC)) 6 of 6; (dose: 400.0 mg/kg/injection, schedule: Q04DX003 (ip), vehicle: Klucel (hydroxypropylcellulose) (HPC)) 2 of 6.
Take `c1ccc(CN(CCNc2ccccc2)c2ccccc2)cc1`: the survivor count runs as follows: (dose: 12.5 mg/kg/injection, schedule: Q01DX009 (ip), vehicle: water) 3 of 6; (dose: 400.0 mg/kg/injection, schedule: Q04DX003 (ip), vehicle: water) 2 of 6.
As for `Clc1ccc(CN2COc3c(ccc4cccnc34)C2)cc1Cl`, the T/C reads like this: under setting [2], 129 % of control; (dose: 400.0 mg/kg/injection, schedule: Q04DX003 (ip), vehicle: saline with Tween-80) 136 % of control.
As for `O=C(O)c1cc(N=Nc2ccccc2)ccc1O`, under setting [2], the survivor count was 6 of 6.
In the case of `COc1cc2c(cc1OC)C1CNC(=O)C1C(c1ccccc1)C2` (stereo not given), where the note is “dose: 100.0 mg/kg/injection, schedule: Q01DX001 (ip), vehicle: Klucel (hydroxypropylcellulose) (HPC)”, the survivor count is reported as 6 of 6.
On to `CCOC(=O)COc1ccc(/C=C(\C)[N+](=O)[O-])c2ccccc12`, for which the T/C is 130 % of control (dose: 100.0 mg/kg/injection, schedule: Q01DX009 (ip), vehicle: saline with Tween-80) and 135 % of control under setting [1].
Consider `Clc1nc(NCc2ccccc2)c2cn[nH]c2n1`, for which the survivor count under setting [1] is 1 of 6.
